Some of the results follow.
The sequences below were run against OsWRKY34 (Oryza sativa, UniProt Q0JBA9 1-250) (assay: protein-binding microarray (RPBM); PBS, 2% BSA, 51.3 ng/ul salmon testes DNA, 50 uM zinc acetate, 200 nM TF, 25 C, 1 h; high values mean tight binding). Conditions: protein: recombinant; tags: N-terminal polyhistidine and DsRed monomer fusion (pET32a); label: CyDye5-dUTP incorporated in the synthesized complementary strand; 3' TTTTT single-stranded linker to array surface; dsDNA, one strand shown.
How it was run: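 Polyhistidine-tagged DsRed fusions of transcription factors, joined at the N-terminus, were expressed in E. coli BL21-CodonPlus and isolated on Ni–NTA. They were incubated at 200 nM for 1 h at 25 °C on a custom Agilent array, double-stranded and BSA-blocked, in PBS with 2% BSA, salmon testes DNA and 50 µM zinc acetate. The binding signal is per-feature fluorescence intensity (arbitrary units) read on an Axon 4000B scanner after washing.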

Amino acid sequences for entries named in this document (tags omitted).
UniProt Q0JBA9, entry or part of it: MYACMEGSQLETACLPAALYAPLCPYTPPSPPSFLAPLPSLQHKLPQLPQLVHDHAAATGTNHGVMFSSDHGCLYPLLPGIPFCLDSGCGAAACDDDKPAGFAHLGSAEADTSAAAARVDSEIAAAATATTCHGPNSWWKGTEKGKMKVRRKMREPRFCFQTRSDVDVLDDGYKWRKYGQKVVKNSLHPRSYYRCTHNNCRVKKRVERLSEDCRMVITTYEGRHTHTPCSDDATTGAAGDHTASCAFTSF

Sequence | binding signal
TTTGCCCATTAGTTTCTCATTGATAATCACCGACACTTTCCGGAGTCACCTAGTGCAG | 8990 fluorescence intensity (a.u.)
TTTTCCTATCATTTGTTTTGCACACGCGTTCCTATACGATCGGAGTCACCTAGTGCAG | 9480 fluorescence intensity (a.u.)
AATAGATGACATTTTTGACTTTTTATTTGTAACGTTTGATCGGAGTCACCTAGTGCAG | 10500 fluorescence intensity (a.u.)
GGCGGTGAGTTTGTGTTTGTTTTCTGCTGTGTCTGTGCGACGGAGTCACCTAGTGCAG | 8070 fluorescence intensity (a.u.)
ATCAGCCGCTTCTCCTCCTCCACGTCCATCGCCGCCGGCGCGGAGTCACCTAGTGCAG | 8080 fluorescence intensity (a.u.)
TTGGAAATTTGCTATTCCTAGGTGGTGATTTGTGGGCGTTCGGAGTCACCTAGTGCAG | 8940 fluorescence intensity (a.u.)
GAGTTGTATAGGAGTTGTATATGATTCAAATTTACTTTGTCGGAGTCACCTAGTGCAG | 8340 fluorescence intensity (a.u.)
GTATATATATATATATGTGTGTGTGTGTGTATATATATATCGGAGTCACCTAGTGCAG | 8410 fluorescence intensity (a.u.)
CACCCATCTCCTTGCCGGCCTCTCCACCCCGCCTCTTTCGCGGAGTCACCTAGTGCAG | 9120 fluorescence intensity (a.u.)
ACATGTTTTCTGCTTTACGATATTGCTTTCAGTACACCATCGGAGTCACCTAGTGCAG | 8150 fluorescence intensity (a.u.)
GATAATAGGTTCTATGTGCGCTTCAGTTTCAAATCTTTTTCGGAGTCACCTAGTGCAG | 12700 fluorescence intensity (a.u.)
TGAAGGGAAATCTGAATCTGGACATGGCAAAGGCGTTGACCGGAGTCACCTAGTGCAG | 12400 fluorescence intensity (a.u.)
GTGTAGGTAAGATGGTAGAAGTTGGTTTTTTTGATAAAATCGGAGTCACCTAGTGCAG | 8130 fluorescence intensity (a.u.)
TTCATCAGCTGAGGTCGGCACTTGCTCATCTTTGCCGATTCGGAGTCACCTAGTGCAG | 9420 fluorescence intensity (a.u.)
GCACACACTCTCCCTTTGCCTCGCGCAGAGGCGGCCGCGCCGGAGTCACCTAGTGCAG | 8150 fluorescence intensity (a.u.)
AGCAACTGTTTAATCCTTGACCTTCTGCTTGGTCTAGTGACGGAGTCACCTAGTGCAG | 8250 fluorescence intensity (a.u.)
CCACACACCACGATCTCCCGTACCTTCTCTCTGCGAGATGCGGAGTCACCTAGTGCAG | 10100 fluorescence intensity (a.u.)
GGATTTTTTGAAAAAAAATTTCGCCCTTTTTTACCGCGTTCGGAGTCACCTAGTGCAG | 8820 fluorescence intensity (a.u.)
CTTAGGGTTCAGGGTCTAGGCGTCTGTTTATCCTTTATCTCGGAGTCACCTAGTGCAG | 9800 fluorescence intensity (a.u.)
CTCTCTCTATCCATCTCTTTCTCTCTCTCTTACACAACAACGGAGTCACCTAGTGCAG | 8150 fluorescence intensity (a.u.)
GTTACAGGATGTCTGACCTTCATTTTCTTTCAGCTGAAGGCGGAGTCACCTAGTGCAG | 8170 fluorescence intensity (a.u.)
CATCAGATAACCAGCCAACACAACCATGAGGGGAGGGGAGCGGAGTCACCTAGTGCAG | 8790 fluorescence intensity (a.u.)
AAATCTCGTCTTTGTTTAGTATCTTTAACAACCATTTGTCCGGAGTCACCTAGTGCAG | 9830 fluorescence intensity (a.u.)

Not a retest: entries from further up.
Sequence | binding signal
CCACACACCACGATCTCCCGTACCTTCTCTCTGCGAGATGCGGAGTCACCTAGTGCAG | 10100 fluorescence intensity (a.u.)
GGATTTTTTGAAAAAAAATTTCGCCCTTTTTTACCGCGTTCGGAGTCACCTAGTGCAG | 8820 fluorescence intensity (a.u.)
